This note sets out measurements from PMC7819943, “Rice protein-binding microarrays: a tool to detect cis-acting elements near promoter regions in rice”.

Sequences of proteins named here, by UniProt entry; tags and fusion partners are left off.
UniProt Q0JBA9, entry or part of it: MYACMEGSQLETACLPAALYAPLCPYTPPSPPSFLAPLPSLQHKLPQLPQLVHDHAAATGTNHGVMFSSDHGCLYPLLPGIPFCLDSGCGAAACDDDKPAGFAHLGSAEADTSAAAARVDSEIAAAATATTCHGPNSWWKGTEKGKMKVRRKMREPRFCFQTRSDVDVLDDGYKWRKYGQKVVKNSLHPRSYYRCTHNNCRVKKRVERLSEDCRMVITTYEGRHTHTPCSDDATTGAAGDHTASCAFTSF

The list shows a part of the results.

The assay concerns the target OsWRKY34 (Oryza sativa, UniProt Q0JBA9 1-250). Put plainly: protein-binding microarray (RPBM); PBS, 2% BSA, 51.3 ng/ul salmon testes DNA, 50 uM zinc acetate, 200 nM TF, 25 C, 1 h; high values mean tight binding. The following applies: protein: recombinant; tags: N-terminal polyhistidine and DsRed monomer fusion (pET32a); label: CyDye5-dUTP incorporated in the synthesized complementary strand; 3' TTTTT single-stranded linker to array surface; dsDNA, one strand shown. The procedure, abridged:
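The binding signal is fluorescence intensity per array feature (arbitrary units). Readings came from an Axon 4000B scanner after a washed, 2% BSA-blocked, double-stranded custom Agilent array had been incubated for 1 h at 25 °C with 200 nM protein and 50 µM zinc acetate. The protein was a Ni–NTA-purified transcription factor fused N-terminally to polyhistidine and DsRed, expressed in E. coli BL21-CodonPlus.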
Consider “GACTTATCTAGAGCACTTATTATATGTGTTGGTGCCACGCCGGAGTCACCTAGTGCAG”, for which the binding signal was 8030 fluorescence intensity (a.u.).
Then “AATATATTTTGACTATTTGTTTGTTTTGTATTGAAAATACCGGAGTCACCTAGTGCAG”, with 9660 fluorescence intensity (a.u.); and “ACGCTCACACATGCACACTCACAACCCTATAAACACCTCTCGGAGTCACCTAGTGCAG”, with 8270 fluorescence intensity (a.u.).
Take “GCATCCGCCTCCTATATATTGGACCTGCACCTCGCGCCGCCGGAGTCACCTAGTGCAG”: the binding signal was 8660 fluorescence intensity (a.u.).
The figure for “TTTCTCTGCTCCTCTTGCTCATCGACGTCAGCGTCCCCAACGGAGTCACCTAGTGCAG” is 8420 fluorescence intensity (a.u.); for “TGTCGGAGCTCCATTTCTTTGGCTTGTTCATCCTCGAGCTCGGAGTCACCTAGTGCAG” it is 8740 fluorescence intensity (a.u.); for “ATTGTTTCATCTACATTTGCACCTCATAGTTGTGCAAGTTCGGAGTCACCTAGTGCAG” it is 9070 fluorescence intensity (a.u.).
Turning to “GGGATGTGACTCCATTATCATGCAAAGTTCCTAACCATGTCGGAGTCACCTAGTGCAG”, the binding signal was 9060 fluorescence intensity (a.u.).
The figure for “TTGCTACTTAACCTTTTTTTTTTTTGACACTCCATTCAACCGGAGTCACCTAGTGCAG” is 9860 fluorescence intensity (a.u.).
The figure for “TATCTAATAATTGGATGGTTACAACCAAATACTTCTACATCGGAGTCACCTAGTGCAG” is 9870 fluorescence intensity (a.u.).
Then “GCTATTGTACCTGCTCTTATGATAGTATGCCCATCTCTGACGGAGTCACCTAGTGCAG”, with 9340 fluorescence intensity (a.u.).
For “CCTCCTCGACGCTTCCACCGCGCCACCTCGCTCCTCCGCCCGGAGTCACCTAGTGCAG”, the binding signal was 8590 fluorescence intensity (a.u.).
Then “ATGCTTTTATCCCCTGTTAATTTCTTGTGACCATTATTTTCGGAGTCACCTAGTGCAG”, with 10900 fluorescence intensity (a.u.); and “TGCTGTGAGTGTATATATTTGTACTGTGTTTTTCTTTAAACGGAGTCACCTAGTGCAG”, with 8140 fluorescence intensity (a.u.); and “CAGTTTGACAGTCACAAGAATAATTGGCCATCGCATCTCGCGGAGTCACCTAGTGCAG”, with 8300 fluorescence intensity (a.u.).
The figure for “GGATATAAAAATTTTCTTGGATGGGGTTTAAGTAAATTTCCGGAGTCACCTAGTGCAG” is 9520 fluorescence intensity (a.u.).
Then “TGATGTGTGACAGGGGAGATTGTTGGGTTTAGTCCTCATGCGGAGTCACCTAGTGCAG”, with 9710 fluorescence intensity (a.u.); and “AACACGCACAACATTTTTCTTATACATTTCACTCGACGGCCGGAGTCACCTAGTGCAG”, with 8830 fluorescence intensity (a.u.); and “GAGGTGGGTGAGGGTCTGTTCAAATATCTATGTTAGTTTACGGAGTCACCTAGTGCAG”, with 11800 fluorescence intensity (a.u.).
With “TACTAATCTCTCTCTCTTTCCTACTTTGCATCGATCGTCCCGGAGTCACCTAGTGCAG”, the binding signal was 8730 fluorescence intensity (a.u.).
On to “TTTAGGGGTGAATTTGGATTGATTTAGATGTTGATGGTGTCGGAGTCACCTAGTGCAG”, for which the binding signal was 9200 fluorescence intensity (a.u.).
In the case of “TTGGACTTCGATATGGTCTTCACGATGCTACTTTGACTAACGGAGTCACCTAGTGCAG”, the binding signal was 8610 fluorescence intensity (a.u.).
Then “GCCTATATTTAATACTTCATTCAAGCGTTCGATATGACAGCGGAGTCACCTAGTGCAG”, with 9430 fluorescence intensity (a.u.); and “TCGTCAAATCTGGCCGTTTCAAGATAATATGCTAGCCGTTCGGAGTCACCTAGTGCAG”, with 8850 fluorescence intensity (a.u.).
Then “TCCACGAGTCAATTCAAGGTTTGACCACACTCTTTCCGTTCGGAGTCACCTAGTGCAG”, with 11900 fluorescence intensity (a.u.); and “AGGGTTTACGTTACTGTCTCGCGTCGTTTCTACGGTTACCCGGAGTCACCTAGTGCAG”, with 10800 fluorescence intensity (a.u.); and “AATCTTTCGCTAATTCGTTTCACCTTCCCCATTCCATCTCCGGAGTCACCTAGTGCAG”, with 11600 fluorescence intensity (a.u.).
Then “CGCTAGGGTTTGCTCTTCCGCTCTCTCGCCGCCGCCGCCGCGGAGTCACCTAGTGCAG”, with 10300 fluorescence intensity (a.u.); and “GCAGTAATCGTGCCCGTGCCTGAGTCCGTTTCCATACGCGCGGAGTCACCTAGTGCAG”, with 8260 fluorescence intensity (a.u.); and “TATTGTTCCGTTTCCGGTTTTCCGATATTTCCGATATCGTCGGAGTCACCTAGTGCAG”, with 12000 fluorescence intensity (a.u.).
As for “AGTTTTTGTTTGAACTGTTTGACCACTTGTCTTATTCAAACGGAGTCACCTAGTGCAG”, the binding signal was 10900 fluorescence intensity (a.u.).
Then “AACGTGGATGCTTTTTTTTATTCCTTTAATAAGTTATTAGCGGAGTCACCTAGTGCAG”, with 8130 fluorescence intensity (a.u.); and “CGCCGAGTGGTGGTTGGTTGGTTGATCGCGCATGTTGGGTCGGAGTCACCTAGTGCAG”, with 10100 fluorescence intensity (a.u.); and “TGTGGTGTGTGTGTGGCTGAAACCGCGAGGCCGCCGCGAGCGGAGTCACCTAGTGCAG”, with 8510 fluorescence intensity (a.u.).
The figure for “ACCTAGCACAAAACGACATTCTATATACACTGTTTTTCTTCGGAGTCACCTAGTGCAG” is 9850 fluorescence intensity (a.u.); for “TTTAAATGTTTCAGTTGCTGATTTTTTTTGTTTCACACTACGGAGTCACCTAGTGCAG” it is 8070 fluorescence intensity (a.u.).
As to “GCAACTGAAGCTCCCATAAACATTTCGGCATGCTATTTCTCGGAGTCACCTAGTGCAG”, the binding signal is 8160 fluorescence intensity (a.u.).
The figure for “CGCGGTTGTTTCTTGTCTGTTGAATGGTCAACTTTGACCGCGGAGTCACCTAGTGCAG” is 14800 fluorescence intensity (a.u.); for “TGGTTTGGTTGTGGTAGATCTTTTTTACTTATTGCTACCACGGAGTCACCTAGTGCAG” it is 15800 fluorescence intensity (a.u.); for “AGGGGCCAAGTTGCGCGGGGTTGTATTGACTGAATGGCGCCGGAGTCACCTAGTGCAG” it is 10100 fluorescence intensity (a.u.).
The figure for “ACTGTGTTGTTCAATTCTCATTCCAGCCTTCTACTGCAATCGGAGTCACCTAGTGCAG” is 11000 fluorescence intensity (a.u.); for “GATTGCTTTTCTATTTTTCCTTTTTTTTTTATCATCCTTACGGAGTCACCTAGTGCAG” it is 12400 fluorescence intensity (a.u.); for “CCTCGCGCACACCGTTGATAACTTGATACTCTCCCGATTTCGGAGTCACCTAGTGCAG” it is 10800 fluorescence intensity (a.u.).
With “CAGCCAAGCCACTATTCCCTGTCATCTCCGGCGCCGACGCCGGAGTCACCTAGTGCAG”, the binding signal is 8510 fluorescence intensity (a.u.).
Then “CCCACATGTCATTCTCACCCCTCCTCTTCTTCCTCTTATTCGGAGTCACCTAGTGCAG”, with 10500 fluorescence intensity (a.u.).
Then “CCATCCGAAATTTTCTCTTCCTTAAATTTCGCCGTCTCGACGGAGTCACCTAGTGCAG”, with 9540 fluorescence intensity (a.u.).
Then “ACACGTGATTTCTCACCGCTCGACGCTCGTCCTCTCCCCTCGGAGTCACCTAGTGCAG”, with 8740 fluorescence intensity (a.u.).
As to “GTTGTTCGTGTGTTTTGCAATCCTCTGTTTTACACTTGCACGGAGTCACCTAGTGCAG”, the binding signal was 11000 fluorescence intensity (a.u.).
The figure for “TTGCAATAGTTTATTCCGCCTGTCTAATGACCGGCCGGTGCGGAGTCACCTAGTGCAG” is 11100 fluorescence intensity (a.u.).
Then “ATGGAGAAGAATGTCTCGCCCTGATACCTTGGTTGCTTTGCGGAGTCACCTAGTGCAG”, with 8120 fluorescence intensity (a.u.); and “TACTCGAATTAAGTACTTACTATTATTCTTCTTTTGTATTCGGAGTCACCTAGTGCAG”, with 8200 fluorescence intensity (a.u.).
Then “CATTATATTCTTTAGCTCGAGGTGTTGTTAATCATTGTTACGGAGTCACCTAGTGCAG”, with 9820 fluorescence intensity (a.u.).
On to “AAGTTGTTAGTCAAGGTGATTAGGTTGGATGATTTGACCTCGGAGTCACCTAGTGCAG”, for which the binding signal was 8690 fluorescence intensity (a.u.).
The figure for “CACCACTGCAGCCTCCTCCTCTTGCCATCCTTCCGCTTCTCGGAGTCACCTAGTGCAG” is 8620 fluorescence intensity (a.u.).
